Source: the supplement of paper PMC7125110
± gives the standard error. The uncertainty is large for many entries.

B1: glmS ribozyme (parent)
chain: AUAAAAGCGCCAGAACUACAGAAAUGUAGUUGACGAGGAGGAGGUUUAUCGAAUUUUCGGCGGAUGCCUCCAAA

Variants of: B1
Assay: self-cleavage kobs at 2500 uM GlcN6P; higher = faster cleavage; RNA array
Settings: with glucosamine-6-phosphate
Summary of the method: (§1)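 Glucosamine-6-phosphate, from 40 μM to 10 mM in HEPES/KCl/Mg(OAc)2 buffer, was flowed over sequenced MiSeq chips carrying barcoded ribozyme variants transcribed in situ by E. coli RNA polymerase. A hybridised Cy3 probe tracked the variants at 37 °C as tiles were imaged over ~14 h. kobs, kcat and KM were obtained by fitting normalised per-tile medians to exponential decays and then applying weighted Michaelis–Menten fits across concentrations.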

Row | Variant | self-cleavage kobs at 2500 uM GlcN6P [s⁻¹]
1 | C50A C68U | 2.44e-05 ± 1.5e-05
2 | A33U U47C | 0.004 ± 0.0033
3 | A39U U54A | 0.0056 ± 0.004
4 | G37U C67U C70G | 3.78e-05 ± 2.8e-05
5 | G29A C67U C71G | 4.96e-05 ± 2.6e-05
6 | G32A A52G A64G | 0.000101 ± 6.6e-05
7 | G43A A53U | 3.15e-05 ± 1.6e-05
8 | G37A C70A | 1.39e-05 ± 9e-06
9 | G41A A42C C71G | 3.24e-05 ± 2e-05
10 | C34A A36C G37U U69G | 6.31e-05 ± 3.2e-05
11 | G29A G37A U47C | 3.17e-05 ± 1.6e-05
12 | A36U U49A A53C | 2.37e-05 ± 2.2e-05
13 | G40U U46C A53U | 0.000469 ± 0.00036
14 | A53U C58U C67U | 3.34e-05 ± 2.5e-05
15 | G32C C50G | 3.47e-05 ± 3.2e-05
16 | A33C C50G G59C A64G | 4.03e-05 ± 3e-05
17 | G37C U69G C71A | 3.59e-05 ± 3e-05
18 | U57C U69G | 2.55e-05 ± 1.4e-05
19 | G37C C58U C61U C68G | 5.63e-05 ± 3e-05
20 | G37A U56G C70G | 1.56e-05 ± 1.5e-05
21 | U31G G59U | 2.66e-05 ± 1.9e-05
22 | C50G G62C | 3.19e-05 ± 1.9e-05
23 | C50G G62U | 2.67e-05 ± 1.7e-05
24 | G35U U47G C50G G62A G66A | 3.53e-05 ± 2.2e-05
25 | G29A U47G | 0.000138 ± 9.6e-05
26 | U31C U57C | 1.11e-05 ± 1.1e-05

In another format: results already given.
A33U U47C
  self-cleavage kobs at 2500 uM GlcN6P [s⁻¹]: 0.004 ± 0.0033
A39U U54A
  self-cleavage kobs at 2500 uM GlcN6P [s⁻¹]: 0.0056 ± 0.004
G37U C67U C70G
  self-cleavage kobs at 2500 uM GlcN6P [s⁻¹]: 3.78e-05 ± 2.8e-05
G29A C67U C71G
  self-cleavage kobs at 2500 uM GlcN6P [s⁻¹]: 4.96e-05 ± 2.6e-05

The results go on:

Row | Variant | self-cleavage kobs at 2500 uM GlcN6P [s⁻¹]
27 | C50G C61U A64G | 5.74e-05 ± 3.3e-05
28 | A33G G51A U55G C67G | 4.97e-05 ± 2.5e-05
29 | A33U U54A U57G | 4.51e-05 ± 3.2e-05
30 | A48G U56C | 2.11e-05 ± 1.4e-05
31 | U55G U57G | 1.4e-05 ± 1.3e-05
32 | G40A U45C U65C | 3.07e-05 ± 2.5e-05
33 | U54G U57G C58G | 2.05e-05 ± 2e-05
34 | U47G A64U | 3.2e-05 ± 2.2e-05
35 | A64G U65G G66U C70G | 2.6e-05 ± 2.5e-05
36 | G29U U30G G43C C68G | 0.00395 ± 0.0031
37 | U45A C68G | 2.18e-05 ± 1.6e-05
38 | A42U C70G | 1.59e-05 ± 1.2e-05
39 | U56G G60A | 1.83e-05 ± 1.5e-05
40 | A53U U57A C58U | 2.09e-05 ± 2.1e-05
41 | A39G A52U U55C G66U | 3.21e-05 ± 2.8e-05
42 | C50G U55G U56A C67G | 3.92e-05 ± 2.1e-05
43 | U57A C61U C70G | 3.59e-05 ± 2e-05
44 | U31C A42G C70U | 0.000287 ± 0.00019
45 | A39G C61U | 3.6e-05 ± 1.8e-05
46 | U47C U55C C70G | 2.81e-05 ± 2.5e-05
47 | A42G G44C | 1.9e-05 ± 1.9e-05
48 | G60A C68G C70A | 3.57e-05 ± 2.3e-05
49 | C50U C61U C67U | 0.000972 ± 0.0008
50 | U30G C67G C68U | 4e-05 ± 2.3e-05
51 | G43U U55A | 1.59e-05 ± 9.6e-06
52 | U30G A48U U65A U69G C70U | 2.46e-05 ± 2.2e-05

Variants of: B1
Assay: self-cleavage kobs at 10000 uM GlcN6P; higher = faster cleavage; RNA array
Settings: with glucosamine-6-phosphate
Summary of the method: as §1

Row | Variant | self-cleavage kobs at 10000 uM GlcN6P [s⁻¹]
53 | C50A C68U | 1.25e-05 ± 1.1e-05
54 | A15U C34U C50G | 2.64e-05 ± 2e-05
55 | U31A U54C C58G | 1.94e-05 ± 1.2e-05
56 | C11G A12U A33G A36G A39G C50G C67G | 2.1e-05 ± 1.7e-05
57 | A6U U56A C67A | 3.41e-05 ± 1.8e-05
58 | A12G A53U C58U | 3.56e-05 ± 1.9e-05
59 | A6G A53C | 3.12e-05 ± 1.6e-05
60 | G43A A53U | 1.86e-05 ± 1.4e-05
61 | G32A G38A C50G C70A | 2.57e-05 ± 1.4e-05
62 | C34A | < 1e-05
63 | G35A C67G | 1.7e-05 ± 1.5e-05
64 | A14G A39G U46C | 0.00865 ± 0.0059
65 | A14G G21U C67U | 0.0443 ± 0.028
66 | G32C C50G | 0.000728 ± 0.00068
67 | C10U A14U G32A | 2.38e-05 ± 1.9e-05
68 | C16G A52G C58G | 2.43e-05 ± 2.2e-05
69 | G7A A39G C71U | 2.15e-05 ± 1.4e-05
70 | A6C A14C U31G A48G G51U C58U C61A | 2.32e-05 ± 2.2e-05

Row | Variant | self-cleavage kobs at 10000 uM GlcN6P [s⁻¹]
71 | C8G C50A C61A C68A | 0.00285 ± 0.0024
72 | C11U A12U U57A | 3.21e-05 ± 1.7e-05
73 | C10U U54C U56G | 2.07e-05 ± 1.5e-05
74 | G32A U57G | 2.06e-05 ± 1.3e-05
75 | C8G U47A G62C | 1.52e-05 ± 1.5e-05
76 | U47G A64U | 2.73e-05 ± 1.4e-05
77 | U31C G32A U55A C71G | 3.42e-05 ± 1.9e-05
78 | A14G C70A | 0.00715 ± 0.0058
79 | U45A C68G | 3.02e-05 ± 1.6e-05
80 | U31G G37C | 2.53e-05 ± 1.3e-05
81 | U31A G37C | 2.83e-05 ± 2.1e-05
82 | C16U U30G C50G | 3.13e-05 ± 2.5e-05
83 | A12G A39U U49G U55G | 2.59e-05 ± 1.8e-05
84 | G32U U55A U65C | 2.56e-05 ± 2e-05
85 | C11U A39G A52U | 2.86e-05 ± 1.7e-05
86 | C16U G60A | 1.29e-05 ± 8.6e-06
87 | G29C A39C U46G | 3.44e-05 ± 2.1e-05
88 | G43U U55A | 2.1e-05 ± 1.7e-05
